No constants are given. Whether binding was seen depends on the method and setting. Binding seen in cells or lysates may run through a third protein. Some binding calls cover weakened binding; strength is not graded here.

The target in the assay is T1, High-mobility group box 2 (HMGB2) (UniProt P30681).
T1 sequence: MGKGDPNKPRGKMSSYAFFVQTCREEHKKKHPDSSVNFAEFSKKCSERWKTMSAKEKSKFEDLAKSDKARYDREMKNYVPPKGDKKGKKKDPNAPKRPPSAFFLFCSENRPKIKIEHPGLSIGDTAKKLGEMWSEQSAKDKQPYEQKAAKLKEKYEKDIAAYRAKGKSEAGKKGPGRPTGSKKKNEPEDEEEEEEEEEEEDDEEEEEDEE
In words: co-IP; cells lysed in radioimmunoprecipitation assay buffer with protease inhibitor, sonicated; lysates immunoprecipitated with antibodies on protein A/G agarose beads; immunoblot; cell line and bait not stated.

B1: TRIM24 (protein, UniProt Q64127 1-1051)
chain: MEVAVEKAAAAAAPAGGPAAAAPSGENEAESRQGPDSESGGEASRLNLLDTCAVCHQNIQSRVPKLLPCLHSFCQRCLPAPQRYLMLTAPALGSAETPPPAPAPAPAPGSPAGGPSPFATQVGVIRCPVCSQECAERHIIDNFFVKDTTEVPSSTVEKSNQVCTSCEDNAEANGFCVECVEWLCKTCIRAHQRVKFTKDHTVRQKEEVSPEAVGVTSQRPVFCPFHKKEQLKLYCETCDKLTCRDCQLLEHKEHRYQFIEEAFQNQKVIIDTLITKLMEKTKYIKYTGNQIQNRIIEINQNQKQVEQDIKVAIFTLMVEINKKGKALLHQLESLAKDHRMKLMQQQQEVAGLSKQLEHVMHFSKWAVSSGSSTALLYSKRLITYRLRHLLRARCDASPVTNTTIQFHCDPSFWAQNIINLGSLVIEDKESQPQMPKQNPVVEQSSQPPGGLPSNQLSKFPTQISLAQLRLQHIQQQVMAQRQQVQRRPAPVGLPNPRMQGPIQQPSISHQHPPPRLINFQNHSPKPNGPVLPPYPQQLRYSPSQNVPRQTTIKPNPLQMAFLAQQAIKQWQISSVQAPPTTASSSSSTPSSPTITSAAGYDGKAFSSPMIDLSAPVGGSYNLPSLPDIDCSSTIMLDNIARKDTGVDHAQPRPPSNRTVQSPNSSVPSPGLAGPVTMTSVHPPIRSPSASSVGSRGSSGSSSKPAGADSTHKVPVVMLEPIRIKQENSGPPENYDFPVVIVKQESDEESRPQNTNYPRSILTSLLLNSSQSSASEETVLRSDAPDSTGDQPGLHQENSSNGKSEWSDASQKSPVHVGETRKEDDPNEDWCAVCQNGGELLCCEKCPKVFHLTCHVPTLTNFPSGEWICTFCRDLSKPEVDYDCDVPSHHSEKRKSEGLTKLTPIDKRKCERLLLFLYCHEMSLAFQDPVPLTVPDYYKIIKNPMDLSTIKKRLQEDYCMYTKPEDFVADFRLIFQNCAEFNEPDSEVANAGIKLESYFEELLKNLYPEKRFPKVEFRHEAEDCKFSDDSDDDFVQPRKKRLKSTEDRQLLK
B1: the binding result is listed as “binds”.
